Results are given in words; binding and its absence hold for the method and conditions named. Binding seen in cells or lysates may run through a third protein. A yes stands for co-enrichment or nearness to the bait. Other partners may have been found. Tags and fused reporters may be left off the sequences shown.
T1: Vipp1–GFP (Synechocystis Vipp1 tagged with green fluorescent protein at the C-terminus) (Synechocystis sp. PCC6803) (UniProt Q55707)
T1 sequence: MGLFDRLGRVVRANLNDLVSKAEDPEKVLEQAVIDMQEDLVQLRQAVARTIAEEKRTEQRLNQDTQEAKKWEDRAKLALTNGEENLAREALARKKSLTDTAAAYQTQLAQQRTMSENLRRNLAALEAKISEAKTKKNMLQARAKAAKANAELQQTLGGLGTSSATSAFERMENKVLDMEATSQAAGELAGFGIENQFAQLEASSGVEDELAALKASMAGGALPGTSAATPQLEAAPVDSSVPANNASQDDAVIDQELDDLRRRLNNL

B1: Phosphoribulokinase (protein, UniProt P37101 1-332)
chain: MTTQLDRVVLIGVAGDSGCGKSTFLRRLTDLFGEEFMTVICLDDYHSLDRQGRKAAGVTALDPRANNFDLMYEQIKTLKSGQSIMKPIYNHETGLLDPPEKVEPNKVVVIEGLHPLYDERVRELVDFGVYLDISEEVKINWKIQRDMAERGHTYEDILASINARKPDFTAYIEPQKQYADVVIQVLPTRLIEDKESKLLRVRLVQKEGVKFFEPAYLFDEGSTIDWRPCGRKLTCTYPGIKMYYGPDNFMGNEVSLLEVDGRFENLEEMVYVENHLSKTGTKYYGEMTELLLKHKDYPGTDNGTGLFQVLVGLKMRKVYEQLTAEAKVPASV
B2: Sugar kinase slr0537 (protein, UniProt Q55480 1-333)
chain: MGHKYDVYGMGNALVDMEFEVTPEQLASLGIDKGVMTLVEEARENELIAQLAQQRGKQSSGGSAANTLVSLAQLGGTGFYACKVGKDEAGAFYLQDLNDCGLDTNPHHETAGEGITGKCLVFVTPDADRTMNAFLGISGSLSVTEMDWSALKQSQYLYLEGYLVTSPSAKAACIEAKAIAEQSGVKTCLSLSDPNMAKFFQDGLKEMLGSGVDLLFANEAEALEMAGTSDLNQAIAYCKSIAKNFALTRGGAGSLIFDGENLLTIGTPKVQPIDTVGAGDMYAGGFLYGLTHGMDYEKAGQLASETAAKVVTCYGPRLDTEILQEILQSVQAV
B3: Transketolase (protein, UniProt P73282 1-670)
chain: MVVATQSLDELSINAIRFLAVDAIEKAKSGHPGLPMGAAPMAFTLWNKFMKFNPKNPKWFNRDRFVLSAGHGSMLQYALLYLLGYDSVTIEDIKQFRQWESSTPGHPENFLTAGVEVTTGPLGQGIANGVGLALAEAHLAATYNKPDATIVDHYTYVILGDGCNMEGISGEAASIAGHWGLGKLIALYDDNHISIDGSTDVAFTEDVSKRFEAYGWHVLHVEDGNTDLAAIAKAIEEAKAVTDKPSMIKVTTIIGYGAPNKSDTAGIHGAALGTDEVAATRKNLGWDYAPFEVPQEVLDYTRKAIERGASYEAEWNQAFAQYKTKYPTEAAAFERQLSGALPEGWDKTLASFTPDQKGLATRKYSEECLNALAPVLPELIGGSADLTHSNLTELHCSGDFQKGAYQNRNVHFGVREHAMGAICNGIALHGSGLLPFGATFLIFTDYMRAAIRLSALSEAGVIWVMTHDSIGQGEDGPTHQPIEVLASLRAIPNLTVIRPADGNETSGAYKVAIAKAKENAPTLLSLTRQAVPNLPGTSIDAVAKGAYTIVDSEGVPELILIGTGSEVQLCVAAAEKLAAQGKKVRVVSMPSWELFETQDAAYKESVLPKAVTKRLSVEAATNFGWHKYVGTEGDTVSIETFGASAPGGVCLEKFGFSVDNVLAKAKTLLS
B4: (P)ppGpp 3′-pyrophosphohydrolase (protein, UniProt P74007 1-760)
chain: MNAVAALPTPTIHTTCAQDIHDIELPQWLEDCLQQWQREIEQGQDETTAPHCLICRAFCFAYDLHAQQRRKSGEPYIAHPVAVAGLLRDLGGDEAMIAAGFLHDVVEDTDISIEQIEALFGEETASLVEGVTKLSKFNFSSTTEHQAENFRRMFLAMAKDIRVIVVKLADRLHNMRTLDALSPEKQRRIARETKDIFAPLANRLGIWRFKWELEDLSFKYLEPDSYRKIQSLVVEKRGDRESRLETVKDMLRFRLRDEGIEHFELQGRPKHLYGIYYKMTSQDKAFEEIYDIAALRIIVESKGECYRALSVVHDVFKPIPGRFKDYIGLPKPNRYQSLHTTVLGLTSRPLEIQIRTEEMHHVAEYGIAAHWKYKESGGSENATLTSTDEKFTWLRQLLDWQSDLKDAQEYVENLKQNLFDDDVYVFTPKGEVISLARGATPVDFAYRIHTEVGHHMKGARVNGQWLGVDTRLKNGDIVEIVTQKNSHPSLDWLNFVVTPSARHRIRQWFKRSRRDENILRGRELLEKELGKTGLEALLKSEPMQKTAERCNYQNVEDLLAGLGYGEITSNSVVNRLRENNVNNVKNSQSSQEVTLASSPQVHPPTPPATGKDNSPIAGIEGLLYHIAGCCHPLPGEPIMGVVTRGARGISIHRQGCHNLEQMDGDRLIPVRWNPNTNNHQTYPVDIVIEAIDRVGVLKDILSRLSDNHINVRNADVKTHLGRPAIISLKIDIHDYQQLLGIMAKIKNMSDVMDLRRVISG
B5: GTP-binding protein TypA/BipA homologue (protein, UniProt P72749 1-597)
chain: MSLPIRNVAIIAHVDHGKTTLVDALLKQSGIFREGEDVPVCVMDSNDLERERGITILSKNTAVRYQDTLINIVDTPGHADFGGEVERVLGMVDGCVLIVDANEGPMPQTRFVLKKALEKGLRPLVVVNKIDRPRADPNTAVDKVFDLFVELGADDDQCDFTTLFASGLGGFAKESLDDDSEDMKPLFEAILHHVPPPAGDPNKPLQLQVTTLDYSDYLGRIIIGRIHNGTVKAGQQAALVKEDGSIAKGKVSKLLGFEGLNRIELPEASAGYIVAIAGFADANIGETLTCPDEPQALPLIKVDEPTLQMTFSVNDSPFAGQEGKFVTSRQIRDRLNRELETNVALRVEDGESAEQFLVSGRGELHLGILIETMRREGYEFQVAQPQVIYREVNGQPCEPVEYLVLDVPEAAVGACIERLGQRRGEMQDMQTSVNGRTQLEFVIPARGLLGFRGDFIRITRGEGIMNHSFLEYRPMSGDLETRYNGVMVAFEEGVATFYAMKNAEDRGVFFITPGTKVYKGMIIGEHNRPQDIELNVCKTKQLTNHRSATGDELVQLQAPEDMNLERALEYIGPDELVEITPESIRLRKVARKKLVKR
B6: Polyribonucleotide nucleotidyltransferase (protein, UniProt P72659 1-718)
chain: MQEFDKSISFDGRDIRLKMGTLAPQAGGSVLIQSGDTAVLVTATRAKGRDGIDFLPLTVDYEGRLYAAGRIPGGFLRREGRPPEKATLISRLIDRPLRPLFPHWLRDELQIVATTLSMDEEVPPDVLAVTGASVAVILAQIPFKGPMAAVRVGLVGDDFIINPTYREVHNGDLDLVVAGTPAGIVMVEAGANQLPEQDIIEAIDFGYEAVQDLINAQRELMTDLGITLATSEPPPVNTAVEEFIANRASKKIITVLGQFDLGKDGRDAALDEIKATEVETAIAELPETDPVKQSVEEDPKLVGNLYKALTKKLMRKQIVDDGVRVDGRKLEQVRPISCEVGFLPRRVHGSGLFNRGLTQVLSLATLGSPGDAQDLADDLHPEDEKRYLHHYNFPPYSVGEARPMRSPGRREIGHGALAERAIIPVLPPQEDFPYVVRVVSEVLSSNGSTSMGSVCGSTLALMDAGVPIKKPVSGAAMGLIKEGDEIRILTDIQGIEDFLGDMDFKVAGTDSGITALQMDMKIDGLSMEVVSKAIMQALPARLHILDKMLATIREPRPELSPFAPRLLTLKIEPEHIGMVIGPGGKTIKGITEQTSCKIDIADDGTVTIASSEGERAERARQMIYNMTRKLNEGEVYLGRVTRIIPIGAFVEVLPGKEGMIHISQLTEGRVGKVEDEVGVGDEVIVKVREIDSKGRLNLTRLGIHPDEAAEARRNASRG
B7: Translation initiation factor IF-2 (protein, UniProt P72689 1-1001)
chain: MNNAKVRIYDLSKELNLENRDILDICERLNVAAKSHSSTISESDAERIKAAAEKFTPQQPKKPRVASRPESKEDKSDPKQQKILAIHHKQEKSGGPSPARPTPPPRPKLQAPKAPTPPQPPVAKASAPKIQKQEEPAQEAPKSVAPPTQPLAPPPVPSLQSPPSKPAPPTPPAKKAAPAPRLAGPPGRTASPNKTAVPAPAKPKVNRPEIVSLKDNRGQARSPGDREEKVAIAAPEPPKPKVELRRPKPPRPEEDENLPELLEFPPLSRGKGVDGDNDADDGDLLSTEKPKPKLKRPTPPRLGKPDQWEDDEDEKANKAKAANKGKRRPKMDDDDDDLDIDGDNGPKPTLVSLSIARPPKPKSLAAKPSTPTVAKVKKPTLKSEAGSSAGGSSRSRGDRRDRKEVVQKPEVIMLDRSLTVRDLADLLKISETDIIKRLFLKGVAVQITQTLDEETARMVAESFEVAVETPERVAAAAKTTEMLDEADLDNLVRRPPVVTIMGHVDHGKTTLLDSIRKTKVAQGEAGGITQHIGAYHVEVEHNDKTEQIVFLDTPGHEAFTAMRARGAKVTDIAILVVAADDGVQPQTKEAISHAKAAGVPLIVAINKVDKPEANPDRIKQELSELGLLAEEWGGDTIMVPVSALNGDNLDGLLEMILLVSEVEELVANPNRQAKGTVIEANLDRTRGPVATLLIQNGTLRVGDAIVVGAVYGKIRAMIDDRGDKVEEASPSFAVEILGLGDVPAAGDEFEVFTNEKDARLQAEARAMEDRQTRLQQAMSSRKVTLSSISAQAQEGELKELNIILKADVQGSLGAILGSLEQLPQGEVQIRVLLASPGEVTETDVDLAAASGAIIIGFNTTLASGARQAADQEGVDIREYDIIYKLLDDIQGAMEGLLDPEEIESSLGTAEVRAVFPVGRGNIAGCYVQSGKIIRNRNLRVRRGDQVLFEGNIDSLKRIKEDVREVNAGYECGIGCSKFNDWKEGDIIEAYEMTMKRRTLAT

These binders were tested against T1, Vipp1–GFP (Synechocystis Vipp1 tagged with green fluorescent protein at the C-terminus) (Synechocystis sp. PCC6803) (assay: affinity purification with mass spectrometry; anti-GFP microbeads (μMACS column) on lysate of HL-exposed (600 μE m^−2 s^−1) Synechocystis vipp1–gfp cells broken without detergent; bound fraction on 10% SDS-PAGE, bands identified by MS/MS; compared with LL vipp1–gfp and HL wild-type cells).

binding, binds:
B1
B2
B3
B4
B5
B6
B7

Source: publication PMC4297356
